Laboratory results from publication PMC7819943, “Rice protein-binding microarrays: a tool to detect cis-acting elements near promoter regions in rice”.
This is one part of the list.

molecular target: T1, OsSMF1 (Oryza sativa, UniProt Q6ZLB0 1-436); test: protein-binding microarray (RPBM); PBS, 2% BSA, 51.3 ng/ul salmon testes DNA, 50 uM zinc acetate, 200 nM TF, 25 C, 1 h; high values mean tight binding; conditions: protein: recombinant; tags: N-terminal polyhistidine and DsRed monomer fusion (pET32a); chain copies: 2; label: CyDye5-dUTP incorporated in the synthesized complementary strand; 3' TTTTT single-stranded linker to array surface; dsDNA, one strand shown
T1 sequence: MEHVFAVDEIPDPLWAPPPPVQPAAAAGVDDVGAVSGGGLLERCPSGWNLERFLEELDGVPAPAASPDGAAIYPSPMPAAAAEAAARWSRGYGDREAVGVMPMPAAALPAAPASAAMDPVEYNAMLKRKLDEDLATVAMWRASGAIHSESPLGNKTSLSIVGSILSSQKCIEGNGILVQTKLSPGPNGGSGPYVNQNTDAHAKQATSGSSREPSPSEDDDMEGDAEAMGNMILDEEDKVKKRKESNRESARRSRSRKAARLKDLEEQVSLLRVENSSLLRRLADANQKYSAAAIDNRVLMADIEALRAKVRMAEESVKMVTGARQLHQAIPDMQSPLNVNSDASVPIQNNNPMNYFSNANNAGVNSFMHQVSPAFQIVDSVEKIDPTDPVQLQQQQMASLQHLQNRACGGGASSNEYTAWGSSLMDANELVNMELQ
How it was run: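 Transcription factors were each fused at the N-terminus to a polyhistidine tag plus DsRed and expressed in E. coli BL21-CodonPlus before Ni–NTA purification. Binding to a double-stranded custom Agilent array was carried out with 200 nM protein at 25 °C for 1 h in PBS, 2% BSA, salmon testes DNA and 50 µM zinc acetate. The binding signal is per-feature fluorescence intensity, in arbitrary units, on an Axon 4000B scanner.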

Sequence	binding signal
CAAGCCGACGTATCATGCTGACATGTCCCTCCGTCCCTCGCGGAGTCACCTAGTGCAG	10500 fluorescence intensity (a.u.)
GTCCTAAAGTACTTATTGTGTCCGGTTTTGGTTAGTTAAGCGGAGTCACCTAGTGCAG	3210 fluorescence intensity (a.u.)
CGTTGTGGAGAATCTCTTTGCCAGCGGGGCGTAGGTTGAGCGGAGTCACCTAGTGCAG	3780 fluorescence intensity (a.u.)
ACAGGAGTTCTTCTGATTACTCGTGGCCAAGAAAACTCGACGGAGTCACCTAGTGCAG	3200 fluorescence intensity (a.u.)
ATTTTCAGGAAATTCAAACACCGCCTAGGTGATGACATTGCGGAGTCACCTAGTGCAG	3720 fluorescence intensity (a.u.)
GGTTGAATCAAATTGTTCCTCTGTTACACTTACACATCATCGGAGTCACCTAGTGCAG	3250 fluorescence intensity (a.u.)
CCTCGCCTCTCCTCGCCGGTTCGCCGTCGCGGCCGCCTCCCGGAGTCACCTAGTGCAG	3550 fluorescence intensity (a.u.)
GATGGAGGCGAACGTCGACCCCATGATGAGGTGGGGTCATCGGAGTCACCTAGTGCAG	3220 fluorescence intensity (a.u.)
TCCCACCACCACACAAATCCACGCCCGCACTACTGCCACCCGGAGTCACCTAGTGCAG	3880 fluorescence intensity (a.u.)
TTCGCCAGTAGAATGACACTGATTTTCTATGGCCTCTTAGCGGAGTCACCTAGTGCAG	3510 fluorescence intensity (a.u.)
GAGCAACTTTGATAGTGCCTGCATGCTCATGTGTTGGCAGCGGAGTCACCTAGTGCAG	4200 fluorescence intensity (a.u.)
ATGGGTCTGGTGAGTCAAGAACCTGCCCTCTTCAACGACACGGAGTCACCTAGTGCAG	4720 fluorescence intensity (a.u.)
TTAGGCCAAGTATGGGGTTGGGGCTATGGAGGAGAAGGGCCGGAGTCACCTAGTGCAG	3320 fluorescence intensity (a.u.)
TCGTCATCCCAGAGGGCGGCGAAAGTGACGTGGCAGACGGCGGAGTCACCTAGTGCAG	28000 fluorescence intensity (a.u.)
CTATCATACATGCGGAATATGAGTTGTCAGATTGTCTAATCGGAGTCACCTAGTGCAG	33700 fluorescence intensity (a.u.)
TATATATAGATACTATACTACACGTGGGGTGCGTTGTATTCGGAGTCACCTAGTGCAG	6770 fluorescence intensity (a.u.)
GCGGCCGTGGTCACCGCACGCGCGCGTGCAGCATGTCGCCCGGAGTCACCTAGTGCAG	3210 fluorescence intensity (a.u.)
CAAGGGAGGAGGGAGAAAGAAAAGGATGGGAGATTTGCTCCGGAGTCACCTAGTGCAG	3290 fluorescence intensity (a.u.)
GCCCTCCACGCGTCGTTGAGTCTCGGGACACGTCCCAGTCCGGAGTCACCTAGTGCAG	4380 fluorescence intensity (a.u.)
ATTAGTTCGAGGGTTTCGTGCGCTGGCAGGCGGACCGGGCCGGAGTCACCTAGTGCAG	3370 fluorescence intensity (a.u.)
CTGTCACGTGGAACCCACCTGTCATCCGGCCCAAAGAAACCGGAGTCACCTAGTGCAG	5060 fluorescence intensity (a.u.)

Sequence	binding signal
GAGAGGGCAGCAGAACGCGCCGGCCGGCGTGATGCTGCGGCGGAGTCACCTAGTGCAG	3580 fluorescence intensity (a.u.)
TCAGAATCAACTGTTGAGTAATATAGTGAAATTTTGTGGTCGGAGTCACCTAGTGCAG	29400 fluorescence intensity (a.u.)
TGTCGGCGCACGGAAACGTGTCGTGGGGCTGTGTCTTGTGCGGAGTCACCTAGTGCAG	3280 fluorescence intensity (a.u.)
TCAGTGTGTCACGTGACTCACCACCTCCTCCACACCAAACCGGAGTCACCTAGTGCAG	17300 fluorescence intensity (a.u.)
TTTTGAACCTAAACGTGTCTGTTTCCACCAGTGCTGCGTACGGAGTCACCTAGTGCAG	3310 fluorescence intensity (a.u.)
GCCGCCTCGTCTGCAACCGCCTCCGCCTCCACGACCGACTCGGAGTCACCTAGTGCAG	3450 fluorescence intensity (a.u.)
CATGGCGCGGAGGGAGGTGGAGTTGATCGCGCCGCACGCCCGGAGTCACCTAGTGCAG	3450 fluorescence intensity (a.u.)
CCCGAGTAGCCGGTTGCATCAACGGTGGCGATATCAAGCGCGGAGTCACCTAGTGCAG	4160 fluorescence intensity (a.u.)
TTTTATACACGAAAGCGCCACGTCAGCTCTACATGGAACGCGGAGTCACCTAGTGCAG	31800 fluorescence intensity (a.u.)
GCGAAGAACGCTTGCACTTGTGTGCAGCGACGCGCGAATTCGGAGTCACCTAGTGCAG	4440 fluorescence intensity (a.u.)
TTGTGCCATGTATGTATGCATGGGTGTCACACCGCACCACCGGAGTCACCTAGTGCAG	4210 fluorescence intensity (a.u.)
CTCGCGGTTGATCTCTCCCGGCCTTGTACGCCACCCGCGTCGGAGTCACCTAGTGCAG	11800 fluorescence intensity (a.u.)
GGAAACAGCAATGCAGCTGCCTGTAGAGACAATAGTTTTCCGGAGTCACCTAGTGCAG	3760 fluorescence intensity (a.u.)
TACAATACGTTCTTCCCAATAAGTATGGGCCACACGTCACCGGAGTCACCTAGTGCAG	9320 fluorescence intensity (a.u.)
AGAAAAGCTCGGTGCCGCCATTAATGGGCTCTCCGTACAACGGAGTCACCTAGTGCAG	34500 fluorescence intensity (a.u.)
TAAGTTGAGGATGCCACGTATCTGGTTTTGTAATTAGGGGCGGAGTCACCTAGTGCAG	8550 fluorescence intensity (a.u.)
TGTTTGTGTACGGGTGATACGTTGTATGAGTTGTCTCTTACGGAGTCACCTAGTGCAG	4540 fluorescence intensity (a.u.)
AATTGACTCGACATATATCGAGCTGTCACGGTAAAGGCCGCGGAGTCACCTAGTGCAG	3550 fluorescence intensity (a.u.)
AGTACGACCAGCTTAGCGTCGCGTACTCGCGTCAGCGCAGCGGAGTCACCTAGTGCAG	3420 fluorescence intensity (a.u.)
GACGCCTGCCTGTCGCGCTGATGCTATCACCATGGGTACCCGGAGTCACCTAGTGCAG	3420 fluorescence intensity (a.u.)
CCTCCTCGGGTGCTGACGTGGCACCCCGGCCGACGCGGCCCGGAGTCACCTAGTGCAG	25300 fluorescence intensity (a.u.)

Some of the entries so far, bar-delimited.
Sequence | binding signal
GAGAGGGCAGCAGAACGCGCCGGCCGGCGTGATGCTGCGGCGGAGTCACCTAGTGCAG | 3580 fluorescence intensity (a.u.)
TCAGAATCAACTGTTGAGTAATATAGTGAAATTTTGTGGTCGGAGTCACCTAGTGCAG | 29400 fluorescence intensity (a.u.)
